Results taken from publication PMC3344845, “Structure of Bradavidin – C-Terminal Residues Act as Intrinsic Ligands” (PLoS ONE, 2012).
Results are given in words; binding and its absence hold for the method and conditions named. Sequences can lack the tags named with a protein.

Chains of the proteins cited; added tags and fusions are not shown. Residues count along the entry.
UniProt P02701, residues 25-152: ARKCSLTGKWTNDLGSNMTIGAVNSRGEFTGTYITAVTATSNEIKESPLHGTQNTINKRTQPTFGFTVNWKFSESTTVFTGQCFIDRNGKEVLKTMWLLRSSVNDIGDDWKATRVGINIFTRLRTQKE

Legend:
[1] = molecular target: streptavidin (Streptomyces avidinii) (UniProt P22629); assay: ITC; core-bradavidin, avidin, streptavidin or rhizavidin in the cell, Brad-tag in the syringe, 40°C, 50 mM sodium phosphate pH 7.0, 100 mM NaCl; n is the stoichiometry per subunit; both purified
chicken avidin (chicken) = chicken avidin (chicken) (UniProt P02701); assay: as above

binding [1]: no binding | binding (chicken avidin (chicken)): no binding
Binder: SEKLSNTK [Brad-tag (synthetic peptide SEKLSNTK)]
